Reference: article PMC8990217, “DUX4 is a multifunctional factor priming human embryonic genome activation” (iScience, 2022)
Results are given in words; binding and its absence hold for the method and conditions named. Binding seen in cells or lysates may run through a third protein. Some entries that bind do so weakly or less than the wild type.

Chains of the proteins cited; added tags and fusions are not shown. Lines headed by an entry give the natural chain unless they say otherwise; changes in a name come on top. A line that says so, or that is headed by a name, gives the form on record, which may keep a tag or linker.
KIX-binding motif mutant DUX4 tagged with HA (Q9UBX2, form named): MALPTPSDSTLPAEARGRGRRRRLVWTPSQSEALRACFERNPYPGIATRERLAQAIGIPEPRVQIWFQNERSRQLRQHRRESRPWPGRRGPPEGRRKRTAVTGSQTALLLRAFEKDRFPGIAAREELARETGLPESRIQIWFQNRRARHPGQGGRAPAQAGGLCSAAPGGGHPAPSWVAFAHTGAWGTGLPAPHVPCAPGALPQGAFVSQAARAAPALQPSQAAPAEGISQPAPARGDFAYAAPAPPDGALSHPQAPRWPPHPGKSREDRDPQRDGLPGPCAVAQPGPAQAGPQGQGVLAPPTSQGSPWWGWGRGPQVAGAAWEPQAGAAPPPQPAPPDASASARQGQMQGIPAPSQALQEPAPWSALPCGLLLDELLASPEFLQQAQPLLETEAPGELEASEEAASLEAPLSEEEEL
UniProt Q96RN5: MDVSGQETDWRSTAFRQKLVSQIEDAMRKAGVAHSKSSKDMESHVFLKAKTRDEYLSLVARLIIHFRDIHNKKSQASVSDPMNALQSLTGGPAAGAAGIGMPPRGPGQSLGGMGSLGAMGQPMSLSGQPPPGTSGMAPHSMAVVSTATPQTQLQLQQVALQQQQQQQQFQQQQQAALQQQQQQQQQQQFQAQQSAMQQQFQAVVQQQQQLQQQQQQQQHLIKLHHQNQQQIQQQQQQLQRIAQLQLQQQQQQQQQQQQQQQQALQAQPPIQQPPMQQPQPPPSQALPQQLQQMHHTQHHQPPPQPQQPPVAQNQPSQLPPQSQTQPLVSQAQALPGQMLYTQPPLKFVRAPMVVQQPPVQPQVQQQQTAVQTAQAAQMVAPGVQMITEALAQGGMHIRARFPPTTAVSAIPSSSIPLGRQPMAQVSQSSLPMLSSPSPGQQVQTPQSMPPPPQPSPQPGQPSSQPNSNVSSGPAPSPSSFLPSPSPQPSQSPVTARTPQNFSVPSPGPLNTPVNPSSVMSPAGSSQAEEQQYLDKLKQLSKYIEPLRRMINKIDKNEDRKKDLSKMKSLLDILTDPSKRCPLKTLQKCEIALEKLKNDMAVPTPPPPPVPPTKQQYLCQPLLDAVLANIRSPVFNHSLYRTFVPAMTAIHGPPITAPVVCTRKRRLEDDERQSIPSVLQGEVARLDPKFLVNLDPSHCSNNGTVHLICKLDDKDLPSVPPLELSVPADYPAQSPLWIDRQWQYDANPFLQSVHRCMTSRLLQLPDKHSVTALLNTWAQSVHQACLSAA

What was measured:
[1] = molecular target: KIX-binding motif mutant DUX4 tagged with HA (human) (UniProt Q9UBX2); experiment: co-IP; HEK-GripTite 293 MSR cells co-transfected with HA-tagged DUX4 and V5-tagged prey; lysates precipitated for HA-tag; immunoblots for V5 and HA
[2] = molecular target: wildtype DUX4 tagged with HA (human) (UniProt Q9UBX2); experiment: as above

- binding [1]: no binding
- binding [2]: binds
Substance: MED15 tagged with V5 (from UniProt Q96RN5 1-788)
